Experimental data published in PubChem BioAssay AID493014 (National Center for Advancing Translational Sciences (NCATS), 2011).
The list shows a part of the results. The main result of the screen is listed elsewhere. These columns were measured beside it and carry no call. Most of these compounds were active or inconclusive in the main read-out, so they are no random draw. The note in brackets gives the kind of curve behind each potency; many fits are weak.

Assay: qHTS Assay to Find Inhibitors of Chronic Active B-Cell Receptor Signaling
Details: ABC-DLBCL IkBa-CBG/CBR reporter, luminescence ratio (green luciferase fused to IkBa over red control in TMD8 lymphoma cells), 4 h
Method in brief: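 TMD8 ABC-DLBCL cells carrying doxycycline-inducible green luciferase fused to IkappaBalpha plus unfused red luciferase were exposed to compounds (up to 46 uM) for 4 hrs at 37C. Activity came from the overlap-corrected green/red luminescence ratio.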

[1] = measured here: CBR red luminescence, cell number

Structure (SMILES) | AC50 [1] | AC50 (measured here: IkBa-CBG green luminescence)
OCCCNc1ncnc2c1cnn2-c1ccc(Cl)cc1 | 11.2 µM [falling, single point] | –
COC(=O)c1ccc(C(=O)OC)c(NC(=O)CSCC(=O)O)c1 | 0.891 µM [falling, full curve, poor fit] | –
COc1ccc(/C(C)=C2/SC(=S)N(CCC(=O)O)C2=O)cc1 | 2.91 µM [falling, full curve] | –
CC1(C)CC(=O)C(C2=NC(C)(C)Cc3ccccc32)=C(O)C1 | 31.6 µM [rising, single point] | –
CN1Cc2cc(C(=O)c3ccccc3O)cnc2NC1=O | 11.2 µM [falling, partial curve, poor fit] | –
CCOC(=O)c1c(NC(=O)/C=C/C(=O)O)sc(C)c1-c1ccc(C)c(C)c1 | 10 µM [falling, partial curve, poor fit] | –
Cc1cc(/C=C(\C#N)C(=O)NCc2ccco2)c(C)n1C1CCCC1 | 5.17 µM [rising, single point] | –
Clc1cccc(-c2nc(NCc3cccnc3)c3ccccc3n2)c1 | 35.5 µM [falling, single point] | –
C/C=C/Cn1c(SCCCc2ccccc2)nc2c1c(=O)[nH]c(=O)n2C | – | 18.4 µM [rising, partial curve, poor fit]
C[C@H](CO)N1C[C@H](C)[C@@H](CN(C)Cc2ccc(Cl)c(Cl)c2)Oc2c(NC(=O)C3CC3)cccc2C1=O | 16.4 µM [falling, single point] | –
NS(=O)(=O)c1cccc(NC(=O)CCSc2ccccc2Cl)c1 | 13 µM [falling, partial curve] | –
Cc1ccc(C(=O)N(C)CC(=O)Nc2ccc(N3CCOCC3)cc2)s1 | 4.61 µM [falling, partial curve] | –
O=C(Cn1c(NCCO)nc2ccccc21)N1CCN(Cc2ccccc2)CC1 | 3.16 µM [rising, partial curve, poor fit] | –
Cc1ccc(NC2=Nc3ccccc3CS2)cc1 | 1.41 µM [rising, partial curve, poor fit] | –
Cc1ccc(S(=O)(=O)CCC(=O)Nc2nnc(CC(C)C)s2)cc1 | 9.2 µM [falling, partial curve, poor fit] | –
CCOC(=O)C(NCCOC)(NC(C)=O)C(F)(F)F (stereo not drawn) | 15.8 µM [rising, partial curve, poor fit] | –
Cc1c(Cl)c(-c2n[nH]c(=S)n2-c2ccc(F)cc2)nn1C | 1.58 µM [rising, partial curve, poor fit] | –
CCNc1nc(NCC)nc(N/N=C/c2ccc(Br)cc2)n1 | 1.12 µM [rising, full curve] | –

In a second layout: results already given.

| Structure (SMILES) | AC50 [1] | AC50 (measured here: IkBa-CBG green luminescence) |
| --- | --- | --- |
| CCOC(=O)C(NCCOC)(NC(C)=O)C(F)(F)F (stereo not drawn) | 15.8 µM [rising, partial curve, poor fit] | – |
| Cc1c(Cl)c(-c2n[nH]c(=S)n2-c2ccc(F)cc2)nn1C | 1.58 µM [rising, partial curve, poor fit] | – |
